PubChem BioAssay AID602196, INSERM | 2012
Screen: 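Modifiers of cisplatin sensitivity in A549 cells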. Cell system: human A549 lung cancer cells. Knock-down reagent: siRNA pair against human genes. Timing: 48 h transfection before cisplatin; time from cisplatin to read-out not stated. Treatment: cisplatin at a dose killing half of control-siRNA cells; exact dose and duration not given. Detection: 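Shift in cisplatin death relative to control siRNA, from -50 (all cells die) to +50 (no cells die); siRNAs harmful on their own scored 0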. Scale: two-siRNA summed score (-2 to +2): higher = both siRNAs protect from cisplatin killing; -2 means both sensitise; mean protection from cisplatin (shift in death) and protection from cisplatin (shift in death), siRNA C and protection from cisplatin (shift in death), siRNA D: higher = protection from cisplatin killing. Rule for the call: 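Each siRNA scores 0 if harmful alone by LDH or WST-1, otherwise +1 if it reduces and -1 if it increases cisplatin killing; a gene is active when both siRNAs agree (sum +2 or -2)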. Calls: active = both siRNAs shift cisplatin killing the same way; inactive = no consistent shift, or siRNA harmful alone.
Shown is a random part of about 23,000 reagents. 455 of them (2%) were called active. 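Active includes both protection and sensitisation; some change values fall well beyond the stated -50 to +50 range.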 The numbers tell different reagents against one gene apart. The record does not give: the amount of reagent.

Target gene | reagent no. | two-siRNA summed score (-2 to +2) | mean protection from cisplatin (shift in death) (%) | protection from cisplatin (shift in death), siRNA C (%) | protection from cisplatin (shift in death), siRNA D (%) | Call
CYP2C9 (cytochrome P450 family 2 subfamily C member 9) | 1 | 0 | -2.6 | 2.4 | -7.5 | inactive
BTBD9 (BTB domain containing 9) | 1 | 0 | -2.3 | 2.7 | -7.3 | inactive
BSND (barttin CLCNK type accessory subunit beta) | 1 | 0 | 1 | 5.8 | -3.7 | inactive
E2F1 (E2F transcription factor 1) | 1 | 0 | -9.5 | -20.7 | 1.7 | inactive
LRIT2 (leucine rich repeat, Ig-like and transmembrane domains 2) | 1 | 2 | 16.9 | 19.4 | 14.4 | active
RAX (retina and anterior neural fold homeobox) | 1 | 0 | -5.5 | -5.1 | -5.9 | inactive
CIRSR (corepressor of RBPJ and splicing regulator) | 1 | 0 | -1.5 | 5 | -8 | inactive
ADGRF4 (adhesion G protein-coupled receptor F4) | 1 | 1 | 9.7 | 15.4 | 4 | inactive
IQCB1 (IQ motif containing B1) | 1 | -1 | 0.5 | -9.3 | 10.2 | inactive
ZNF70 (zinc finger protein 70) | 1 | 1 | 11.3 | 24.7 | -2.1 | inactive
TAS2R20 (taste 2 receptor member 20) | 1 | 1 | 11.6 | 4.7 | 18.6 | inactive
LOC388639 | 1 | -1 | 0.3 | 15.1 | -14.4 | inactive
LOC441462 | 1 | 0 | 3.4 | 5 | 1.7 | inactive
SOX13 (SRY-box transcription factor 13) | 1 | 0 | 5 | 1.1 | 8.9 | inactive
TAS2R4 (taste 2 receptor member 4) | 1 | -1 | -9.2 | 3.7 | -22.1 | inactive
LOC401019 | 1 | 0 | 11 | 20.7 | 1.3 | inactive
LOC390003 | 1 | 0 | 6.1 | 19 | -6.7 | inactive
KCNK5 (potassium two pore domain channel subfamily K member 5) | 1 | 0 | -21.2 | -29.1 | -13.3 | inactive
UBP1 (upstream binding protein 1) | 1 | 0 | -7.2 | -12.6 | -1.7 | inactive
GLYATL1 (glycine-N-acyltransferase like 1) | 1 | 0 | 8.7 | 8.9 | 8.5 | inactive
SPATS2 (spermatogenesis associated serine rich 2) | 1 | 0 | 1.5 | 2.9 | 0 | inactive
LOC441894 | 1 | 1 | 11.2 | 6.7 | 15.7 | inactive
IFI27L1 (interferon alpha inducible protein 27 like 1) | 1 | 2 | 20.7 | 16.2 | 25.3 | active
MEGF8 (multiple EGF like domains 8) | 1 | 0 | 0.2 | -7.7 | 8.1 | inactive
MEGF8 (multiple EGF like domains 8) | 2 | 0 | 12.4 | 21.2 | 3.6 | inactive
ALB (albumin) | 1 | 0 | 6.5 | 5 | 8.1 | inactive
LOC388798 | 1 | 0 | 12.5 | 14.5 | 10.4 | inactive
MRPL27 (mitochondrial ribosomal protein L27) | 1 | 0 | 23.7 | 11.2 | 36.2 | inactive
KCNK3 (potassium two pore domain channel subfamily K member 3) | 1 | 0 | -6 | -9.2 | -2.8 | inactive
DIAPH2 (diaphanous related formin 2) | 1 | 0 | -9.4 | -12.7 | -6.1 | inactive
XRCC6P2 (X-ray repair cross complementing 6 pseudogene 2) | 1 | 0 | 7.4 | 16.1 | -1.3 | inactive
ITGB7 (integrin subunit beta 7) | 1 | 0 | 13.1 | 14.1 | 12.1 | inactive
GLIPR2 (GLI pathogenesis related 2) | 1 | 0 | 9.6 | 10.9 | 8.3 | inactive
LONRF3 (LON peptidase N-terminal domain and ring finger 3) | 1 | 0 | 13.8 | 12.8 | 14.8 | inactive
TACR1 (tachykinin receptor 1) | 1 | 0 | 6.6 | 9.1 | 4.1 | inactive
ANKUB1 (ankyrin repeat and ubiquitin domain containing 1) | 1 | 0 | 12 | 15.8 | 8.1 | inactive
NETO1 (neuropilin and tolloid like 1) | 1 | 0 | 7.6 | 7 | 8.1 | inactive
ENG (endoglin) | 1 | 0 | 1.8 | 10.9 | -7.3 | inactive
KIR2DS5 | 1 | 0 | 13.3 | 16.1 | 10.5 | inactive

Just “two-siRNA summed score (-2 to +2)” (5 entries from above):
ALB (albumin) = 0
LOC388798 = 0
MRPL27 (mitochondrial ribosomal protein L27) = 0
KCNK3 (potassium two pore domain channel subfamily K member 3) = 0
DIAPH2 (diaphanous related formin 2) = 0
